Laboratory results reported in publication PMC5482619.
Results are given in words; binding and its absence hold for the method and conditions named. In cells and extracts the contact can be indirect. Some results given as binding are weak or reduced against the parent protein; the word gives no strength.

Protein sequences, listed by entry. Tags and fused reporters are not part of them. Lines headed by an entry give the natural chain unless they say otherwise; changes in a name come on top.
UniProt P05556: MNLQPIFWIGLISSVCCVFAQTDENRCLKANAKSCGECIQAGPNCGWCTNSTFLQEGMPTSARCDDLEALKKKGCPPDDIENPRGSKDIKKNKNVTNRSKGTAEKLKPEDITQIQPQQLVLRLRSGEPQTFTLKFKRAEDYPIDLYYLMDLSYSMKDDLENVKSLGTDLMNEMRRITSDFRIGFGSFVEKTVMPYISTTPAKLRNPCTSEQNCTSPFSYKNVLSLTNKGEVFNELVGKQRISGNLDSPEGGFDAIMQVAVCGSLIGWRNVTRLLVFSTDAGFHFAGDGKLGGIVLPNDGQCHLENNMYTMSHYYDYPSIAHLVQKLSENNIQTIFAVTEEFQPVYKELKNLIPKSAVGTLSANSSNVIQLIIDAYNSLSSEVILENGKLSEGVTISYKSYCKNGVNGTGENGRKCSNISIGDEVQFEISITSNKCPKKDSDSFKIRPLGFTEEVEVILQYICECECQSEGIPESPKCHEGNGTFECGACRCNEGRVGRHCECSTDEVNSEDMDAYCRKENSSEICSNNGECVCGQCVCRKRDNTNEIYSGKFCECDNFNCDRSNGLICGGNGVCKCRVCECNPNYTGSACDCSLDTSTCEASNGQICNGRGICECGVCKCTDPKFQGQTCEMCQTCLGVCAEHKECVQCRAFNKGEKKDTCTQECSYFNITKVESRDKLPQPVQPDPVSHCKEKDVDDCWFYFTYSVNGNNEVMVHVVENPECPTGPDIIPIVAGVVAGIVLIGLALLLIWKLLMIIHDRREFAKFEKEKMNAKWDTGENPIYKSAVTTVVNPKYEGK

Columns and labels:
[1] = target: galectin-1 (human (endogenous in MDA-MB-231 and Hs578T)) (UniProt P09382); test: cross-linking + co-IP; cells incubated with 1 mM BS3 for 20 min to cross-link galectin-1 to cell surface proteins; lysates immunoprecipitated with anti-galectin-1 antibody, western blot with anti-integrin β1 antibody; MDA-MB-231 and Hs578T control shRNA and galectin-1 shRNA cells; also control cells treated beforehand with anti-galectin-1 antibodies (2 μg/ml, 48 h)
[2] = target: recombinant human galectin-1 (human) (UniProt P09382); test: co-IP; galectin-1 knock-down cells (MDA-MB-231 and Hs578T, Gal-1 sh1 and sh2) treated with recombinant human galectin-1 (300 ng/ml) for 48 h; lysates immunoprecipitated with anti-galectin-1 antibody, western blot with anti-integrin β1 antibody; only the target purified

integrin β1 (from UniProt P05556 21-798) (receptor)
binding [1]: binds | binding [2]: binds
